The text below walks through data of publication PMC4829432, “T-box3 is a ciliary protein and regulates stability of the Gli3 transcription factor to control digit number” (eLife, 2016).

Amino acid sequences for entries named in this document (tags omitted).
UniProt Q61602: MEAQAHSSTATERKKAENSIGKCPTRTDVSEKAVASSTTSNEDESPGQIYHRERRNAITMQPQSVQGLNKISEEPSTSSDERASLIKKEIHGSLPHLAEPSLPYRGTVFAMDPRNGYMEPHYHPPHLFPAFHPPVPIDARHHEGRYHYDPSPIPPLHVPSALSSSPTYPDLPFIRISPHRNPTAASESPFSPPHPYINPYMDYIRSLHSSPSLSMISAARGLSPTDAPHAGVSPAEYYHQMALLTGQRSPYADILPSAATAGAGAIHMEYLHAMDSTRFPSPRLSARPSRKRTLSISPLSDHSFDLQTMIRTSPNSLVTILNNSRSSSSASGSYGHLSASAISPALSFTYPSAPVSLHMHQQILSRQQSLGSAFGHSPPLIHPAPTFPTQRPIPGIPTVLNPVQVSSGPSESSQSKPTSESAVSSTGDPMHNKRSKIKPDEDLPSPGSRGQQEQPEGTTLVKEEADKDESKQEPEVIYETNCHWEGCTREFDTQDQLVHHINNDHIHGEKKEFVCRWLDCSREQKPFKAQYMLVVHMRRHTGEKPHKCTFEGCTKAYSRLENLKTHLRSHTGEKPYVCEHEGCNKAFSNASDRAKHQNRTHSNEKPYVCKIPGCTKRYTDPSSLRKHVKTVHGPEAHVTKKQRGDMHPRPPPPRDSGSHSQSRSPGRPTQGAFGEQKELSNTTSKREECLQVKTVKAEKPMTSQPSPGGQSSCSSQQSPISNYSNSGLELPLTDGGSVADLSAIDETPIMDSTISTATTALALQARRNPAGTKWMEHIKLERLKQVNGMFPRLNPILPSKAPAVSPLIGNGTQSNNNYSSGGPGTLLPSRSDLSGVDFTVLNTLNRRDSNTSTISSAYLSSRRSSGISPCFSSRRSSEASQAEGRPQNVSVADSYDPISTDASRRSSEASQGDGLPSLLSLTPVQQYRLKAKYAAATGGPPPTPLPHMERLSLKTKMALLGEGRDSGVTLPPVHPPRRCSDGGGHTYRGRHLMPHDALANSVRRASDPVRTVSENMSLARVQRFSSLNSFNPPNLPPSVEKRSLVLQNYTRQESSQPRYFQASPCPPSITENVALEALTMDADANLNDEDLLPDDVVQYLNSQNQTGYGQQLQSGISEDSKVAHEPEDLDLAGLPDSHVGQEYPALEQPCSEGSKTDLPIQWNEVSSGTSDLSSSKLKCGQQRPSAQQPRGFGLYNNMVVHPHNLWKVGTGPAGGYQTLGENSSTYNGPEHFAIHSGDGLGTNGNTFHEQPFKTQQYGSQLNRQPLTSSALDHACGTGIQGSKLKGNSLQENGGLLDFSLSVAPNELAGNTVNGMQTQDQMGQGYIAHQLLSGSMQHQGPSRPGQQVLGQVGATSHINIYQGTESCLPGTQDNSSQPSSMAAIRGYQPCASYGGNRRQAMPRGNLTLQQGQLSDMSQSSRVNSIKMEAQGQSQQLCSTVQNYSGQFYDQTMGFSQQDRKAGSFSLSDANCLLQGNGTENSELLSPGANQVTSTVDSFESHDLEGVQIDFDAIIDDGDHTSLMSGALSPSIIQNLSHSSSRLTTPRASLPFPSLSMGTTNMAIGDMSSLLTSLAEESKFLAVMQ

Assay [1] deals with T1, Myc-tagged full length TBX3 (UniProt P70324).
T1 sequence: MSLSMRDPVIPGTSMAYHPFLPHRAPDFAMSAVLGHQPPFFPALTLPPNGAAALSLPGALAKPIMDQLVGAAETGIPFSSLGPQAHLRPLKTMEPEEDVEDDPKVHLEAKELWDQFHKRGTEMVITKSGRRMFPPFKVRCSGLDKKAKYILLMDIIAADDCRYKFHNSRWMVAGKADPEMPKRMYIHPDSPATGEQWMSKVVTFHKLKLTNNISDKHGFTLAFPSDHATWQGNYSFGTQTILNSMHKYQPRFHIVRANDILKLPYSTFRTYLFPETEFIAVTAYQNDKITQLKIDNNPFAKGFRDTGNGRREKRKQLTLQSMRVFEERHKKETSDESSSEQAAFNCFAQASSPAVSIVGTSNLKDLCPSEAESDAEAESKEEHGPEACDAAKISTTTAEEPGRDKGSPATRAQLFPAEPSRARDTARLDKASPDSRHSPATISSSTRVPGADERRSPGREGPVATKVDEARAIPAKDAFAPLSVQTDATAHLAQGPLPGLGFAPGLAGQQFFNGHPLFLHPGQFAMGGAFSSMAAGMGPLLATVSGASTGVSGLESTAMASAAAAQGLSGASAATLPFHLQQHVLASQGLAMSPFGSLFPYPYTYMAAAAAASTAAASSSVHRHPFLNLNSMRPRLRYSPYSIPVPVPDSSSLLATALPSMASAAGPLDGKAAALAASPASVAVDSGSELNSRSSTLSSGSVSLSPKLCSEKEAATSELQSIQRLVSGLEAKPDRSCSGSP
Nature of the assay: co-IP; Myc- and Flag-tagged proteins overexpressed together in HEK293 cells; lysates in Dignam buffer C; IP for Flag or Myc, immunoblot for Tbx3, Kif7 or Gli3. In general terms: In western blotting, separated proteins are transferred to a membrane and probed.

The target in assay [2] is T1, Myc-tagged full length TBX3. The assay is described as above. This is another data set of the same source.

Like-named read-outs stand apart in the source and are kept apart here. Results are given in words; binding and its absence hold for the method and conditions named. In cells and extracts the contact can be indirect. Some binding calls cover weakened binding; strength is not graded here. Tags and fused reporters may be left off the sequences shown.

In the case of “Flag-tagged Gli3 (from UniProt Q61602 1-1583)”, the binding entry in assay [1] is recorded as “no binding”.

B1: Flag-tagged Kif7 (protein, UniProt B7ZNG0 1-1348)
chain: MGLEAQRLPGAEEAPVRVALRVRPLLPKELLHGHQSCLRVEPERGRITLGRDRHFGFHVVLGEDTGQEAVYQACVQPLLEAFFEGFNATVFAYGQTGSGKTYTMGEASVASLHEDEQGIIPRAMAEAFKLIDENDLLDCLVHVSYLELYKEEFRDLLEVGTASRDIQLREDDRGNVVLCGVKEVDVEGLDEVLSLLEMGNAARHTGATHFNRLSSRSHTVFTVTLEQRGRTPSRLPRPAAGHLLVSKFHFVDLAGSERVLKTGSTGERLKESIQINSTLLALGNVISALGDPQRRGSHIPYRDSKITRILKDSLGGNAKTVMIACVSPSSSDFDETLNTLNYASRAQNIRNRATVNWHPEAERVPEEQAAGARGPPRHRSETRIIHRGRRVPCPAVGSAAVAAGLGAECARCRARTSAAYSLLRELQAEPGLPGAAARKVRDWLCAVEGERSTLSSASGPDSGIESAPAEDQAAQGTSGRKGDEGTQQLLTLQSQVARLEEENRDFLAALEDAMEQYKLQSDRLREQQEEMVELRLRLELAQPGWGAPGLLQGLPPGSFVPRPHTAPLGGAHTHMLGMMPSTCLPGEEVSSEQQVVSGKEVKAEVLAQADKLRSASSTTSEEEGEEEEEEEEEEEEPPRRTLYLRRNGISNWSQRAGLSPGSPPDRKGPEVCPEEPAAAIPAPQAVGSGKVPVQTRQAPAAMASEWRLAQAQQKIRELAINIRMKEELIGELVRTGKAAQALNRQHSQRIRELEQEAERVRAELCEGQRQLRELEGREPQDASERSRLQEFRKRVAAAQSQVQVLKEKKQATERLVSLSAQSETRLQELERNVQLMRRQQGQLQRRLREETEQKRRLETEMNKRQHRVKELELKHEQQQKILKIKTEEIAAFQRKRRSGSNGSVVSLEQQQKIEEQKKWLDQEMEKVLQQRRALEELGEELRKREVILAKKEALMQEKTGLESKRLRSSQALNEDIVRVSSRLEHLEKELSEKSGQLRQGSAQNQQQIRGEIDTLRQEKDSLLKQRLEIDSKLRQGSLLSPEEERTLFQLDEAIEALDAAIEYKNEAITCRQRVLRASASLLSQCEMNLMAKLSYLSSSETRALLCKYFDKVVTLREEQHQQQIAFSELEMQLEEQQRLVYWLEVALERQRLEMDRQLTLQQKEHEQNVQLLLQQGRDHLGEGLADSKRQYEARIHALEKELGRHMWINQELKQKLSAGSTAGQSQGCERRSLCLENRQCLGNEDGLHPAAPEPLWQSSLLEGVSRVWDESRDLVHAPLPLTWKRSSLCSEQGSSEESRVRETTEPPVGRVLPMGEVGLSWNFGPLPKPRWEPRRTSPGMIDVRKNPL
As to B1, the binding entry in assay [2] is listed as “binds”.
